Data reported in US8541460B2, “PDK-1/Akt signaling inhibitors” (The Ohio State University, priority 2003, dated 2013).

Tests used:
[1] = system: SK-MEL-5; experiment: NCI DTP cell line screen (SRB), Melanoma; type: cell-based, human
Procedure: (§1) Screening of compounds 70 and 71 against several cancer cell lines The human tumor cell lines of the cancer screening panel are grown in RPMI 1640 medium containing 5% fetal bovine serum and 2 mM L-glutamine. For a typical screening experiment, cells are inoculated into 96 well microtiter plates in 100 μL at plating densities ranging from 5,000 to 40,000 cells/well depending on the doubling time of individual cell lines. After cell inoculation, the microtiter plates are incubated at 37° C., 5% CO2, 95% air and 100% relative humidity for 24 h prior to addition of experimental drugs.
(§2) After 24 h, two plates of each cell line are fixed in situ with TCA, to represent a measurement of the cell population for each cell line at the time of drug addition (Tz). Experimental drugs are solubilized in dimethyl sulfoxide at 400-fold the desired final maximum test concentration and stored frozen prior to use. At the time of drug addition, an aliquot of frozen concentrate is thawed and diluted to twice the desired final maximum test concentration with complete medium containing 50 μg/ml gentamicin. Additional four, 10-fold or ½ log serial dilutions are made to provide a total of five drug concentrations plus control. Aliquots of 100 μl of these different drug dilutions are added to the appropriate microtiter wells already containing 100 μl of medium, resulting in the required final drug concentrations.
(§3) Following drug addition, the plates are incubated for an additional 48 h at 37° C., 5% CO2, 95% air, and 100% relative humidity. For adherent cells, the assay is terminated by the addition of cold TCA. Cells are fixed in situ by the gentle addition of 50 μl of cold 50% (w/v) TCA (final concentration, 10% TCA) and incubated for 60 minutes at 4° C. The supernatant is discarded, and the plates are washed five times with tap water and air dried. Sulforhodamine B (SRB) solution (100 μl) at 0.4% (w/v) in 1% acetic acid is added to each well, and plates are incubated for 10 minutes at room temperature. After staining, unbound dye is removed by washing five times with 1% acetic acid and the plates are air dried. Bound stain is subsequently solubilized with 10 mM trizma base, and the absorbance is read on an automated plate reader at a wavelength of 515 nm. For suspension cells, the methodology is the same except that the assay is terminated by fixing settled cells at the bottom of the wells by gently adding 50 μl of 80% TCA (final concentration, 16% TCA). Using the seven absorbance measurements [time zero, (Tz), control growth, (C), and test growth in the presence of drug at the five concentration levels (Ti)], the percentage growth is calculated at each of the drug concentrations levels. Percentage growth inhibition is calculated as: [(Ti−Tz)/(C−Tz)]×100 for concentrations for which Ti>/=Tz [(Ti−Tz)/Tz]×100 for concentrations for which Ti<Tz
(§4) Three dose response parameters are calculated for each experimental agent. […] The drug concentration resulting in total growth inhibition (TGI) is calculated from Ti=Tz. […] Values are calculated for each of these three parameters if the level of activity is reached; however, if the effect is not reached or is exceeded, the value for that parameter is expressed as greater or less than the maximum or minimum concentration tested.
(§5) The methods described were used to test compounds 70 and 71 on a panel of sixty cell lines under a screening service provided by the Developmental Therapeutics Program at the National Institutes of Health. […]

[2] = system: PC-3; experiment: NCI DTP cell line screen (SRB), Prostate Cancer; type: cell-based
Procedure: as §1, §2, §3, §4, §5

[3] = system: SK-OV-3; experiment: NCI DTP cell line screen (SRB), Ovarian Cancer; type: cell-based, human
Procedure: as §1, §2, §3, §4, §5

[4] = system: SN12C; experiment: NCI DTP cell line screen (SRB), Renal Cancer; type: cell-based
Procedure: as §1, §2, §3, §4, §5

[5] = system: UACC-62; experiment: NCI DTP cell line screen (SRB), Melanoma; type: cell-based
[6] = system: NCI-H226; experiment: NCI DTP cell line screen (SRB), Non-Small Cell Lung Cancer; type: cell-based, human
Procedure: as §1, §2, §3, §4, §5

[7] = system: NCI-H460; experiment: as above; type: cell-based
Procedure: as §1, §2, §3, §4
(§6) The methods described were used to test compounds 70 and 71 on a panel of sixty cell lines under a screening service provided by the Developmental Therapeutics Program at the National Institutes of Health. Shown in FIG. 1C are 1, RPMI-8226 leukemia cells; 2; NCI-H322M non-small cell lung cancer cells; 3, HT29 colon cancer cells; 4, U251 CNS cancer cells; 5, SK-MEL-28 melanoma cancer cells; 6, SK-OV-3 ovarian cancer cells; 7, RXF 393 renal cancer cells; 8, PC-3 prostate cancer cells; 9, MDA-MB-231 breast cancer cells.

[8] = system: EKVX; experiment: as above; type: cell-based
Procedure: as §1, §2, §3, §4, §6

[9] = system: NCI-H23; experiment: as above; type: cell-based
Procedure: as §1, §2, §3, §4, §6

[10] = system: K-562; experiment: NCI DTP cell line screen (SRB), Leukemia; type: cell-based
Procedure: as §1, §2, §3, §4, §6

[11] = system: SR; experiment: NCI DTP cell line screen (SRB), Leukemia; type: cell-based
Procedure: as §1, §2, §3, §4, §6

[12] = system: MOLT-4; experiment: NCI DTP cell line screen (SRB), Leukemia; type: cell-based
Procedure: as §1, §2, §3, §4, §6

[13] = system: MCF7; experiment: NCI DTP cell line screen (SRB), Breast Cancer; type: cell-based, human
Procedure: as §1, §2, §3, §4, §5

## NCC(=O)Nc1ccc(-n2nc(C(F)(F)F)cc2-c2ccc3c(ccc4ccccc43)c2)cc1 [Compound 70, 2-Amino-N-{4-[5-(2-phenanthrenyl)-3-(trifluoromethyl)-1H-pyrazol-1-yl]-phenyl}-acetamide]
[1]; Log10 Concentration −4.0
  Mean Optical Densities: 0.364
[1]; Log10 Concentration −5.0
  Mean Optical Densities: 0.136
[1]; Log10 Concentration −6.0
  Mean Optical Densities: 1.659
[1]; Log10 Concentration −7.0
  Mean Optical Densities: 1.958
[1]; Log10 Concentration −8.0
  Mean Optical Densities: 1.995
[2]; Log10 Concentration −4.0
  Mean Optical Densities: 0.108
[2]; Log10 Concentration −5.0
  Mean Optical Densities: 0.055
[2]; Log10 Concentration −6.0
  Mean Optical Densities: 0.593
[2]; Log10 Concentration −7.0
  Mean Optical Densities: 0.763
[2]; Log10 Concentration −8.0
  Mean Optical Densities: 0.910
[3]; Log10 Concentration −4.0
  Mean Optical Densities: 0.302
[3]; Log10 Concentration −5.0
  Mean Optical Densities: 0.083
[3]; Log10 Concentration −6.0
  Mean Optical Densities: 1.262
[3]; Log10 Concentration −7.0
  Mean Optical Densities: 1.597
[3]; Log10 Concentration −8.0
  Mean Optical Densities: 1.514
[4]; Log10 Concentration −4.0
  Mean Optical Densities: 0.308
[4]; Log10 Concentration −5.0
  Mean Optical Densities: 0.203
[4]; Log10 Concentration −6.0
  Mean Optical Densities: 1.093
[4]; Log10 Concentration −7.0
  Mean Optical Densities: 1.194
[4]; Log10 Concentration −8.0
  Mean Optical Densities: 1.209
[5]; Log10 Concentration −4.0
  Mean Optical Densities: 0.364
[5]; Log10 Concentration −5.0
  Mean Optical Densities: 0.137
[5]; Log10 Concentration −6.0
  Mean Optical Densities: 1.407
[5]; Log10 Concentration −7.0
  Mean Optical Densities: 1.546
[5]; Log10 Concentration −8.0
  Mean Optical Densities: 1.649
[6]; Log10 Concentration −4.0
  Mean Optical Densities: 0.614
[6]; Log10 Concentration −5.0
  Mean Optical Densities: 0.505
[6]; Log10 Concentration −6.0
  Mean Optical Densities: 1.429
[6]; Log10 Concentration −7.0
  Mean Optical Densities: 1.586
[6]; Log10 Concentration −8.0
  Mean Optical Densities: 1.593
[7]; Log10 Concentration −4.0
  Mean Optical Densities: 0.213
[7]; Log10 Concentration −5.0
  Mean Optical Densities: 0.173
[7]; Log10 Concentration −6.0
  Mean Optical Densities: 0.830
[7]; Log10 Concentration −7.0
  Mean Optical Densities: 1.499
[7]; Log10 Concentration −8.0
  Mean Optical Densities: 1.799
[8]; Log10 Concentration −4.0
  Mean Optical Densities: 0.193
[8]; Log10 Concentration −5.0
  Mean Optical Densities: 0.156
[8]; Log10 Concentration −6.0
  Mean Optical Densities: 0.786
[8]; Log10 Concentration −7.0
  Mean Optical Densities: 0.860
[8]; Log10 Concentration −8.0
  Mean Optical Densities: 0.891
[9]; Log10 Concentration −4.0
  Mean Optical Densities: 0.156
[9]; Log10 Concentration −5.0
  Mean Optical Densities: 0.097
[9]; Log10 Concentration −6.0
  Mean Optical Densities: 1.255
[9]; Log10 Concentration −7.0
  Mean Optical Densities: 1.673
[9]; Log10 Concentration −8.0
  Mean Optical Densities: 1.672
[10]; Log10 Concentration −4.0
  Mean Optical Densities: 0.247
[10]; Log10 Concentration −5.0
  Mean Optical Densities: 0.209
[10]; Log10 Concentration −6.0
  Mean Optical Densities: 0.681
[10]; Log10 Concentration −7.0
  Mean Optical Densities: 1.022
[10]; Log10 Concentration −8.0
  Mean Optical Densities: 1.435
[11]; Log10 Concentration −4.0
  Mean Optical Densities: 0.363
[11]; Log10 Concentration −5.0
  Mean Optical Densities: 0.265
[11]; Log10 Concentration −6.0
  Mean Optical Densities: 0.605
[11]; Log10 Concentration −7.0
  Mean Optical Densities: 0.796
[12]; Log10 Concentration −4.0
  Mean Optical Densities: 0.296
[12]; Log10 Concentration −5.0
  Mean Optical Densities: 0.180
[12]; Log10 Concentration −6.0
  Mean Optical Densities: 0.614
[12]; Log10 Concentration −7.0
  Mean Optical Densities: 0.951
[12]; Log10 Concentration −8.0
  Mean Optical Densities: 0.964
[13]; Log10 Concentration −4.0
  Mean Optical Densities: 0.255
[13]; Log10 Concentration −5.0
  Mean Optical Densities: 0.196
[13]; Log10 Concentration −6.0
  Mean Optical Densities: 0.982
[13]; Log10 Concentration −7.0
  Mean Optical Densities: 1.541
[13]; Log10 Concentration −8.0
  Mean Optical Densities: 1.566
